{"source": "the supplement of paper PMC8728848", "experiment_in_all_cases": "glycan array binding signal (z-score within array); higher = stronger binding", "conditions_in_all_cases": "glycan notation: IUPAC condensed, linker removed", "key": {"[1]": {"tested_on": "Fuc(a1-2)[Gal(a1-3)]Gal(b1-4)[Fuc(a1-3)]GlcNAc(b1-3)GalNAc", "outline": "(§1)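 From the Consortium for Functional Glycomics database, 3228 arrays were curated, keeping only those whose protein sequence was available. Binding is given as a within-array Z-score averaged across arrays sharing a protein sequence and across linkers. Negative Z-scores can be read as non-binding.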"}, "[2]": {"tested_on": "Fuc(a1-2)[Gal(a1-3)]Gal(b1-4)[Fuc(a1-3)]GlcNAc", "outline": "as §1"}, "[3]": {"tested_on": "Fuc(a1-2)[Gal(a1-3)]Gal(b1-4)[Fuc(a1-3)]Glc", "outline": "as §1"}, "[4]": {"tested_on": "Fuc(a1-2)[Gal(a1-3)]Gal", "outline": "as §1"}, "[5]": {"tested_on": "Fuc(a1-2)[Gal(a1-4)]Gal(b1-4)GlcNAc", "outline": "as §1"}, "[6]": {"tested_on": "Fuc(a1-2)[GalNAc(a1-3)]Gal(b1-3)GalNAc(a1-3)[Fuc(a1-2)]Gal(b1-4)GlcNAc", "outline": "as §1"}, "[7]": {"tested_on": "Fuc(a1-2)[GalNAc(a1-3)]Gal(b1-3)GalNAc(b1-3)Gal(a1-4)Gal(b1-4)Glc", "outline": "as §1"}, "[8]": {"tested_on": "Fuc(a1-2)[GalNAc(a1-3)]Gal(b1-3)GlcNAc(b1-2)Man(a1-3)[Fuc(a1-2)[GalNAc(a1-3)]Gal(b1-3)GlcNAc(b1-2)Man(a1-6)]Man(b1-4)GlcNAc(b1-4)GlcNAc", "outline": "as §1"}, "[9]": {"tested_on": "Fuc(a1-2)[GalNAc(a1-3)]Gal(b1-3)GlcNAc(b1-2)Man(a1-3)[Fuc(a1-2)[GalNAc(a1-3)]Gal(b1-3)GlcNAc(b1-2)Man(a1-6)]Man(b1-4)GlcNAc(b1-4)[Fuc(a1-6)]GlcNAc", "outline": "as §1"}, "[10]": {"tested_on": "Fuc(a1-2)[GalNAc(a1-3)]Gal(b1-3)GlcNAc(b1-3)GalNAc", "outline": "as §1"}, "[11]": {"tested_on": "Fuc(a1-2)[GalNAc(a1-3)]Gal(b1-3)GlcNAc(b1-6)GalNAc", "outline": "as §1"}, "[12]": {"tested_on": "Fuc(a1-2)[GalNAc(a1-3)]Gal(b1-3)GlcNAc", "outline": "as §1"}, "[13]": {"tested_on": "Fuc(a1-2)[GalNAc(a1-3)]Gal(b1-4)GlcNAc(b1-2)Man(a1-3)[Fuc(a1-2)[GalNAc(a1-3)]Gal(b1-4)GlcNAc(b1-2)Man(a1-6)]Man(b1-4)GlcNAc(b1-4)GlcNAc", "outline": "as §1"}, "[14]": {"tested_on": "Fuc(a1-2)[GalNAc(a1-3)]Gal(b1-4)GlcNAc(b1-2)Man(a1-3)[Fuc(a1-2)[GalNAc(a1-3)]Gal(b1-4)GlcNAc(b1-2)Man(a1-6)]Man(b1-4)GlcNAc(b1-4)[Fuc(a1-6)]GlcNAc", "outline": "as §1"}, "[15]": {"tested_on": "Fuc(a1-2)[GalNAc(a1-3)]Gal(b1-4)GlcNAc(b1-2)Man", "outline": "as §1"}, "[16]": {"tested_on": "Fuc(a1-2)[GalNAc(a1-3)]Gal(b1-4)GlcNAc(b1-3)Gal(b1-4)GlcNAc(b1-3)Gal(b1-4)GlcNAc", "outline": "as §1"}, "[17]": {"tested_on": "Fuc(a1-2)[GalNAc(a1-3)]Gal(b1-4)GlcNAc(b1-3)Gal(b1-4)GlcNAc", "outline": "as §1"}, "[18]": {"tested_on": "Fuc(a1-2)[GalNAc(a1-3)]Gal(b1-4)GlcNAc(b1-3)GalNAc", "outline": "as §1"}, "[19]": {"tested_on": "Fuc(a1-2)[GalNAc(a1-3)]Gal(b1-4)GlcNAc(b1-3)[Fuc(a1-2)[GalNAc(a1-3)]Gal(b1-4)GlcNAc(b1-6)]GalNAc", "outline": "as §1"}, "[20]": {"tested_on": "Fuc(a1-2)[GalNAc(a1-3)]Gal(b1-4)GlcNAc(b1-6)GalNAc", "outline": "as §1"}, "[21]": {"tested_on": "Fuc(a1-2)[GalNAc(a1-3)]Gal(b1-4)GlcNAc", "outline": "as §1"}, "[22]": {"tested_on": "Fuc(a1-2)[GalNAc(a1-3)]Gal(b1-4)Glc", "outline": "as §1"}, "[23]": {"tested_on": "Fuc(a1-2)[GalNAc(a1-3)]Gal(b1-4)[Fuc(a1-3)]GlcNAc(b1-3)GalNAc", "outline": "as §1"}, "[24]": {"tested_on": "Fuc(a1-2)[GalNAc(a1-3)]Gal(b1-4)[Fuc(a1-3)]GlcNAc", "outline": "as §1"}, "[25]": {"tested_on": "Fuc(a1-2)[GalNAc(a1-3)]Gal", "outline": "as §1"}, "[26]": {"tested_on": "Fuc(a1-2)[GalNAc(a1-4)]Gal(b1-4)GlcNAc", "outline": "as §1"}, "[27]": {"tested_on": "Fuc(a1-2)[GalNAc(b1-3)]Gal", "outline": "as §1"}, "[28]": {"tested_on": "Fuc(a1-3)GlcNAc", "outline": "as §1"}, "[29]": {"tested_on": "Fuc(a1-3)[Gal(b1-4)]Glc6S", "outline": "as §1"}, "[30]": {"tested_on": "Fuc(a1-3)[Gal(b1-4)]GlcNAc(b1-2)Man(a1-3)[Fuc(a1-3)[Gal(b1-4)]GlcNAc(b1-2)Man(a1-6)]Man(b1-4)GlcNAc(b1-4)GlcNAc", "outline": "as §1"}, "[31]": {"tested_on": "Fuc(a1-3)[Gal(b1-4)]GlcNAc(b1-2)Man(a1-3)[Fuc(a1-3)[Gal(b1-4)]GlcNAc(b1-2)Man(a1-6)]Man(b1-4)GlcNAc(b1-4)[Fuc(a1-6)]GlcNAc", "outline": "as §1"}, "[32]": {"tested_on": "Fuc(a1-3)[Gal(b1-4)]GlcNAc(b1-2)Man", "outline": "as §1"}}, "note": "The other results are listed elsewhere or left out.", "data": [{"substance": "MpAFP RI GFP (Marinomonas primoryensis)", "values": [{"measurement": "glycan array binding signal (z-score)", "setting": "[1]", "result": -0.471}, {"measurement": "glycan array binding signal (z-score)", "setting": "[2]", "result": -0.51}, {"measurement": "glycan array binding signal (z-score)", "setting": "[3]", "result": -0.473}, {"measurement": "glycan array binding signal (z-score)", "setting": "[4]", "result": -0.323}, {"measurement": "glycan array binding signal (z-score)", "setting": "[5]", "result": 0.24}, {"measurement": "glycan array binding signal (z-score)", "setting": "[6]", "result": -0.633}, {"measurement": "glycan array binding signal (z-score)", "setting": "[7]", "result": 0.098}, {"measurement": "glycan array binding signal (z-score)", "setting": "[8]", "result": -0.022}, {"measurement": "glycan array binding signal (z-score)", "setting": "[9]", "result": -0.477}, {"measurement": "glycan array binding signal (z-score)", "setting": "[10]", "result": 0.48}, {"measurement": "glycan array binding signal (z-score)", "setting": "[11]", "result": -0.706}, {"measurement": "glycan array binding signal (z-score)", "setting": "[12]", "result": 0.243}, {"measurement": "glycan array binding signal (z-score)", "setting": "[13]", "result": 0.063}, {"measurement": "glycan array binding signal (z-score)", "setting": "[14]", "result": 0.602}, {"measurement": "glycan array binding signal (z-score)", "setting": "[15]", "result": -0.489}, {"measurement": "glycan array binding signal (z-score)", "setting": "[16]", "result": 0.122}, {"measurement": "glycan array binding signal (z-score)", "setting": "[17]", "result": -0.288}, {"measurement": "glycan array binding signal (z-score)", "setting": "[18]", "result": -0.581}, {"measurement": "glycan array binding signal (z-score)", "setting": "[19]", "result": -0.593}, {"measurement": "glycan array binding signal (z-score)", "setting": "[20]", "result": -0.439}, {"measurement": "glycan array binding signal (z-score)", "setting": "[21]", "result": -0.635}, {"measurement": "glycan array binding signal (z-score)", "setting": "[22]", "result": -0.56}, {"measurement": "glycan array binding signal (z-score)", "setting": "[23]", "result": 0.179}, {"measurement": "glycan array binding signal (z-score)", "setting": "[24]", "result": 0.147}, {"measurement": "glycan array binding signal (z-score)", "setting": "[25]", "result": -0.389}, {"measurement": "glycan array binding signal (z-score)", "setting": "[26]", "result": -0.557}, {"measurement": "glycan array binding signal (z-score)", "setting": "[27]", "result": -0.514}, {"measurement": "glycan array binding signal (z-score)", "setting": "[28]", "result": 0.406}, {"measurement": "glycan array binding signal (z-score)", "setting": "[29]", "result": 0.905}, {"measurement": "glycan array binding signal (z-score)", "setting": "[30]", "result": -0.659}, {"measurement": "glycan array binding signal (z-score)", "setting": "[31]", "result": 0.556}, {"measurement": "glycan array binding signal (z-score)", "setting": "[32]", "result": 0.027}]}]}
